Reference: PubChem BioAssay AID1347423 (Functional Genomics Laboratory (NCATS/FGL), 2020)
In all, about 52,000 sequences went through this assay and about 210 (0.4%) were called active.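 How the source made its calls: active means gene whose silencing raises cell survival under the drug, median off-target-corrected z-score across its silencing RNAs 2 or more; inactive means the rest.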 This is one part of the list.

Test: Resistance to Poly (ADP-Ribose) Polymerase inhibitor: Gene Identification via Genome-wide siRNA Screen
Conditions: mouse BRCA2 R2336H ES cells, olaparib, CellTiter-Glo viability; stronger effect = higher value
Outline: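 Genome-wide siRNA screen (3 siRNAs/gene, 20 nM) in mouse ES cells carrying hypomorphic BRCA2 R2336H; olaparib 500 nM added 48 h post-transfection, CellTiter-Glo viability 72 h later. Normalized to plate-median negative control; MAD z-scores, gene median, seed-adjusted.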

Sequence | z-score
CCUGUCACGUCUUGUUUCCTT against Cpn2 | inactive: -0.607
GGGUUUCAUCCAGGAUCGATT against Bax | inactive: 0.415
GGUGGUUUGCUCAUUAGAUTT against Cdk5r1 | inactive: -0.28
GCUCCUCCAGAUACAUGCUTT against Tbrg1 | inactive: 0.949
GGAACAAAAGGUUCCUUUUTT against BC060737 | inactive: 0.0794
GCCGCUUCUAUUUUCGUGGTT against Glra4 | inactive: -0.193
GCCACACUUAAGUCAGACCTT against C430004E15Rik | inactive: -0.454
CCGAACUCCUCAGAAUACGTT against B830021E24Rik | inactive: 0.735
GGCCUUCAUCCAACUCUGUTT against Ttc16 | inactive: -0.802
CCUCCCUCACUCAAAUUGGTT against Bok | inactive: -0.216
CCUUUUUUUGGUAACUCGUTT against Sox11 | inactive: 0.265
GGUCUUGGGAGAAGAUACATT against Gem | inactive: 0.548
GGCUUAAUAUAUCUUGUUCTT against A530015O12Rik | inactive: -0.59
GGAGCACAAUUCAAAUUCATT against Zfp482 | inactive: 1.92
CCUGAUUCAUAUCACUAUUTT against Gpr82 | inactive: 0.0325
GGUAUUCCUCUAGAUCAGATT against Dysf | inactive: 0.94
GGAACAAGUACAUACUUAUTT against Frs2 | inactive: 1.91
GGACCUUGCUAAGAAGUACTT against 6330412F12Rik | inactive: -0.732
GGCUGUAUGCUCAGACUGATT against Olfr147 | inactive: -0.458
GGAAAUACUCUCAUCAUCGTT against Olfr214 | inactive: -0.495
CCUGUUGCUCAAAGACUUGTT against Sn | inactive: -0.457
CGACAAUACUCUAUUGUUUTT against A430081C19Rik | inactive: 1.93
GCUCAUGCAUGGCUGUACATT against E430029F06 | inactive: -3.24
AAUAGACUGGUACUCUCUGTT against Olfr476 | inactive: -0.919
CCUCUUAGCCGGGUAGAGATT against S100a16 | inactive: 0.404
CGCAGAGGUUUUACUUUAATT against Mycbpap | inactive: -0.757

Sequence | z-score
GGAUAUUAUUCUCACACUATT against Ddx6 | inactive: -1.98
CCCAAAACUACGACUCCUGTT against Dpf3 | inactive: 0.874
GGACUUCUACCCAGCGAUATT against 1110036O03Rik | inactive: 0.243
GGAAAUUCCGAGGAUGGAATT against H2-M3 | inactive: 0.0213
GCUGAAACCGCUAUUAAAUTT against Pou3f4 | inactive: 0.856
GCCAUGUUCCCAUUUAACUTT against A730018C14Rik | inactive: 1.11
GGAUGUGCCCAACUGGAAGTT against Grim19 | inactive: 0.913
GGUUAUCAUGAGGCCUUGGTT against Olfr1339 | inactive: -0.71
GGACAAAGGUGAAAACGGUTT against Gpr19 | inactive: 0.583
CCAUUGUAUAGGAAAGUGATT against Nras | inactive: -0.337
GGGCUAUAACCCUGAAGAUTT against Rarg | active: 1.67
CGGUUGUUAAAAAAAGUCATT against Atad2 | inactive: 0.25
GGUGAUUGUACUGUCAGCUTT against Olfr1221 | inactive: -0.521
GGUAGAUCAGUAAUAGUUATT against Glrb | inactive: 2.9
GGGCUACUCAAAGAAGAUATT against Galnt5 | inactive: -0.514
CCAUAAACUAUGAGUUUUGTT against Elovl7 | inactive: 0.552
GGUUUUUGAUGAUUGCUUUTT against Dirc2 | inactive: 0.411
GGGACACAAAGACACCGUGTT against Wdr10 | inactive: -0.406
CCAACCUUUCCGCAUGAUGTT against 2310051D06Rik | inactive: 0.224
GGCCUGAAGAAACACGAGATT against C1qtnf1 | inactive: 0.738
GGAAUUCGUCAACAACAUGTT against Csna | inactive: -0.346
CCAUAUCCCUGUGGAAAAGTT against Armet | inactive: -2.82
GGAUGCUCUAAGUUGGAGUTT against Tinf2 | inactive: -1.16
GGGAUUGUUCAAAUGCUAUTT against Cldn8 | inactive: 1.58
GGUCCAUGGGUAAGAGGAUTT against V1ra5 | inactive: 0.192
CGUCAAGCGAGGAAACUCUTT against 1700027A23Rik | inactive: -0.684

Sequence | z-score
CCACGGAGCAGAUAUGCUGTT against Mare | inactive: 0.115
CCCAAGAAUACCAGUGUCGTT against Sdk2 | inactive: 2.22
GGGCGAACAGGACAAUUAUTT against Surf5 | inactive: -0.645
GGAGAGAACGCAGAGAUACTT against 1700019N19Rik | inactive: 0.706
GGGUUAGGGUAUAAAAGAUTT against Kcna7 | inactive: -2.23
CCCACAAAGAUAGGCCGUGTT against C6.1AL | inactive: -2.06
GCCUGGAACGAACUCUUUUTT against Zfp297b | inactive: -0.322
GGCCAUAGCCUAGCAUAACTT against Wdr4 | inactive: 1.57
GCUAGUCGACAAUUAUUACTT against Pcdhga1 | inactive: 1.07
GGAGCCUUGGUCCUUUGAUTT against 1500031H04Rik | inactive: -1.58
GCUUCUUCUAUUCAUCAUUTT against Olfr933 | inactive: -0.392
GGGUCCCUUUGUCAGUAUGTT against 9230110C19Rik | inactive: 0.838
GGAUUCAGCCCUGGUUUCATT against Wbp1 | inactive: 0.509
GCUUUGAUGACAAAAGUUCTT against Prdx6 | inactive: 0.0202
CCUUGACCGAGGAAGACAATT against Abpa | inactive: -0.511
GGAGGGACAUUAAACUAUUTT against Chchd3 | inactive: -0.187
CGUGAACUUUCAGAGCAGGTT against BC011248 | inactive: -0.308
GCUAAGGUCUUACUCCUGGTT against Cdca4 | inactive: -0.906
CGGCCUUCUCUACAAAUCATT against 1110032A13Rik | inactive: 1.23
GCUCAGCGACUGGCAAAGATT against Mrpl46 | inactive: -0.893
GGUAUUCGAGACCUGAUUATT against 6030440P17Rik | inactive: -1.35
GGUCUUGAGGUCAUUCUCCTT against Il24 | inactive: 0.301
GGUUGGUAGGAUGGACAAGTT against Rab11b | inactive: -0.391
GGCUCUCUGAGGAAUCUAGTT against 2310009N05Rik | inactive: -0.229
GGAAAUCUUGGCAGUUUCCTT against Ckn1 | inactive: 0.5
GGGCAAAUUAGAGACCAAGTT against B830017A01Rik | inactive: -0.595

In a second layout: entries from further up
CGCAGAGGUUUUACUUUAATT against Mycbpap
  z-score: inactive: -0.757
GGACAAAGGUGAAAACGGUTT against Gpr19
  z-score: inactive: 0.583
CGGUUGUUAAAAAAAGUCATT against Atad2
  z-score: inactive: 0.25
GGUGAUUGUACUGUCAGCUTT against Olfr1221
  z-score: inactive: -0.521

Carrying on:

Sequence | z-score
GGAGGUAGAUGAACUUUAATT against Syt13 | inactive: 1.22
GGCAUUGCUUCAUGGCUCUTT against Tmprss5 | inactive: 0.462
CCUUCAGUGGUUUGAACCGTT against Dnd1 | inactive: 2.01
CCAAGUAGAUUGUACCUAUTT against Fuca1 | inactive: 0.0975
GCCAAAUUAAGUAUCUUGATT against Lamp2 | inactive: -0.118
GGGUGGCUAUGGACAAAAATT against Arl12 | inactive: -1.65
CCAGUAAUUAGCAUGUACGTT against Olfr1370 | inactive: 0.97
GGGACUUGGUUCAAACGACTT against Tbx3 | inactive: 1.11
GGCAUAAUCUUCCAUUGUCTT against C130068N17Rik | inactive: -1.38
GGUGGAAUAUAGAAGUUUCTT against Rgnef | inactive: 0.16
GGUAGCUAUUAAAGAAUCCTT against AW209491 | inactive: 0.621
GGAUCCUUUGGUUAUAAGATT against Nav1 | inactive: 0.307
CCUAAAAGACUUCAUCCGUTT against Kcnh8 | inactive: 0.718
GGACAAGAUUGUAUCUGCATT against Olfr1507 | inactive: -0.834
GCCUUUAACAGCUCUUAAUTT against A430041E03 | inactive: -0.755
GCCAGUGACUGUCCUUACATT against Dag1 | inactive: 0.206
GGCAACCAAAACGAUACAATT against Entpd7 | inactive: -0.362
GGAGAAACGCAUCAACCCUTT against Pou2f2 | inactive: 1.99
CCUAUUUUUGCCCUAUAGUTT against 1700019F09Rik | inactive: 1.89
GGAGAAGCUGAAGACCAAGTT against Rpl35 | inactive: 0.322
GCAUUGUGCUCAAAUCUGCTT against C1qtnf7 | inactive: -0.467
GCGAGAUGUAGUAACAGAGTT against Adam15 | inactive: -0.847
GGUCCAAGCUUAAAUUUGUTT against Mrpl16 | inactive: 0.0306
GGACUUCUAGAGAACUUGUTT against 2900092C05Rik | inactive: 1.96
GACCGGUCAAGUUUUUUCGTT against Pfn1 | inactive: -0.746
GGAGUUGUGAAUUUCUCGUTT against Sri | inactive: 0.905

Five neighbouring entries out of the list so far, quoted:
Sequence | z-score
GGGACUUGGUUCAAACGACTT against Tbx3 | inactive: 1.11
GGCAUAAUCUUCCAUUGUCTT against C130068N17Rik | inactive: -1.38
GGUGGAAUAUAGAAGUUUCTT against Rgnef | inactive: 0.16
GGUAGCUAUUAAAGAAUCCTT against AW209491 | inactive: 0.621
GGAUCCUUUGGUUAUAAGATT against Nav1 | inactive: 0.307
